The test system of the assay is RAW 264.7. The experiment in a line: HMGB1-induced TNF-alpha production relative to HMGB1-stimulated control; higher = more TNF-alpha secretion (less inhibition). As to conditions: stimulus: HMGB1 5 ug/ml, 18 h.

Where “and” joins values, the source holds several entries; their conditions need not be identical. Equal entries are not always repeated. Structures can show the parent of a compound that is named as a salt. ± gives the standard deviation of the averaged measurements. The list shows a part of the results. Single values are uncertain, as repeats are few or missing.

In the case of `CC(C)(O)c1ccccc1CC[C@@H](SCC1(CC(=O)O)CC1)c1cccc(/C=C/c2ccc3ccc(Cl)cc3n2)c1` [Montelukast], the “HMGB1-induced TNF-alpha production” value (compound concentration: 3 uM) turned out to be 98.4 ± 1.5%.
Same read-out and setting: the same measure for `CC(C)(O)c1ccccc1CC[C@@H](SCC1(CC(=O)O)CC1)c1cccc(/C=C/c2ccc3ccc(Cl)cc3n2)c1`: 93% and 72.4%; for `COc1cccc(C(=O)NCCN2CCN(c3ccc(Cl)cc3)CC2)c1`: 75.1%; for `C=C(C)[C@@H]1CC=C(CO)CC1`: 104%.
As for `c1ccc(CNc2ncnc3nc[nH]c23)cc1` [Aminopurine, 6-benzyl], under “compound concentration: 3 uM”, the “HMGB1-induced TNF-alpha production” value stood at 83.1%.
The same measure, in the same setting: to `CC(=O)Oc1cccc(C)c1` [meta-CRESYL ACETATE] belongs 74.7%.
On to `COc1cc(/C=C/CO)cc(OC)c1O` [Sinapyl Alcohol], for which, under “compound concentration: 1 ug/ml”, the “HMGB1-induced TNF-alpha production” value was found to be 71.9%.
With `C=CCCCCCCCCC(=O)[O-].C=CCCCCCCCCC(=O)[O-].[Zn+2]`, the “HMGB1-induced TNF-alpha production” value (compound concentration: 3 uM) came to 92.5%.
The same measure, in the same setting: to `NC1CCN(c2nc3c(cc2F)c(=O)c(C(=O)O)cn3-c2ccc(F)cc2F)C1` (stereo not given) [Tosufloxacin] belongs 91.5%.
On the same count and under the same terms, to `NC1CCN(c2nc3c(cc2F)c(=O)c(C(=O)O)cn3-c2ccc(F)cc2F)C1` (stereo not given) [Tosufloxacin hydrochloride] belongs 74.6%; to `NC1CCN(c2nc3c(cc2F)c(=O)c(C(=O)O)cn3-c2ccc(F)cc2F)C1` (stereo not given), 93.4%; to `Oc1cc2c(cc1O)C(c1ccccc1)CNCC2` (racemic), 85.6%.
The same measure, in the same setting: to `COC(=O)Nc1nc2cc([S+]([O-])c3ccccc3)ccc2[nH]1` (stereo not given) [Oxfendazole] belongs 89.6%; to `COC(=O)Nc1nc2cc([S+]([O-])c3ccccc3)ccc2[nH]1` (stereo not given), 104%.
Turning to `COC(=O)Nc1nc2cc([S+]([O-])c3ccccc3)ccc2[nH]1` (stereo not given) [Oxfendazol], under “compound concentration: 3 uM”, the “HMGB1-induced TNF-alpha production” value was found to be 96.4%.
On to `C[C@@H]1C(=O)NC2=Nc3cccc(Cl)c3CN21` [Quazinone], for which the “HMGB1-induced TNF-alpha production” value (compound concentration: 3 uM) was found to be 109%.
On the same count and under the same terms, the same measure for `COc1ccccc1OCC(O)COC(N)=O` (stereo not given) [Methocarbamol]: 89.9%; for `COc1ccccc1OCC(O)COC(N)=O` (stereo not given): 94.7%.
On the same count and under the same terms, to `Nc1c2c(nc3ccccc13)CCCC2O` (stereo not given) [Hydroxytacrine maleate] belongs 89.7%; to `Nc1c2c(nc3ccccc13)CCCC2O` (stereo not given) [Hydroxytacrine], 94%.
Regarding `Nc1ccn([C@@H]2CS[C@H](CO)O2)c(=O)n1`, the “HMGB1-induced TNF-alpha production” value (compound concentration: 3 uM) came to 101%.
Same read-out and setting: to `Nc1ccn([C@@H]2CS[C@H](CO)O2)c(=O)n1` [Lamivudine] belongs 76.5%; to `Cc1cc(N)c2ccccc2[n+]1CCCCCCCCCC[n+]1c(C)cc(N)c2ccccc21` [Dequalinium dichloride], 69.6%.
Same read-out and setting: the same measure for `Cc1cc(N)c2ccccc2[n+]1CCCCCCCCCC[n+]1c(C)cc(N)c2ccccc21` [Dequalinium chloride hydrate]: 92.2%; for `Cc1cc(N)c2ccccc2[n+]1CCCCCCCCCC[n+]1c(C)cc(N)c2ccccc21`: 125%.

The record behind these values is the supplement of paper PMC3682954.
